Data taken from PubChem BioAssay AID1508600 (Functional Genomics Laboratory (NCATS/FGL), 2020).
The whole screen tested about 53,000 sequences, of which about 3,700 (7%) were called active.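 How the source made its calls: active means gene knockdowns whose robust z-score for IL-1 alpha signal is at least 2 or at most -2, so actives lie on both sides; inactive means the rest.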 Some of the results follow.

Assay: Components of the Cytosolic LPS Sensing Pathway: Gene Identification via Genome-wide siRNA Screen;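 further: robust z of the log signal after scaling to non-targeting control siRNA wells of the plate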
Settings: RAW264.7 macrophages, IL-1a HTRF, actives lie on both sides, screened at 100 nM (by protocol), cells primed 5 h with Pam3CSK4 first
How it was run: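 Three distinct siRNAs per gene were tested singly at 100 nM in RAW264.7 macrophages. Following Pam3CSK4 priming and 24 hour LipidA transfection, IL-1a secretion was read by HTRF.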
With GGUGAUGCUCGAAUUGGGUTT against Drg1 the z-score was inactive: -0.253.
For CGGUCUGAUGGAGUGCUAUTT against Plekhm1, the z-score was inactive: 0.508.
In the case of GGUUAUCGUGCGCAUCCGATT against Pcdh8, the z-score was inactive: -0.744.
For GGACCGUUUCAUUUCAGGGTT against Phf1, the z-score was inactive: -1.62.
For CCAUUCCAUGUCGAUGUCUTT against Prm2, the z-score was active: -2.08.
In the case of CGAGUGAGCAUCACUUUUATT against Mal, the z-score was inactive: -1.25.
For GGCCUGUCGAAUGAAAGUGTT against Eif2ak4, the z-score was inactive: -0.965.
With CGAGUGGCUGAAACUUCCGTT against Pik3c3 the z-score was inactive: -1.27.
With GGAUUUGAACAUAAGUGACTT against Arhgap44 the z-score was inactive: -0.0615.
For CCUGUUAGGAAAGAAUCUUTT against Zc3h13, the z-score was inactive: -0.478.
In the case of CGAAGAGGAUAGGCUACGCTT against Grk3, the z-score was inactive: -0.699.
For CCCUAGACUAAAAAGUAAATT against Paqr5, the z-score was inactive: 0.327.
For GGUCCUUCAACGGAAGGGATT against Tagap, the z-score was inactive: 0.196.
With “GGUCCAAAGCAAUUCCAGCTT against E330013P04Rik” the z-score was inactive: 0.875.
In the case of GGACUCACCUCAGGAACAGTT against Cd33, the z-score was inactive: -0.53.
In the case of CCUAGCACUGUUAUAAACATT against Oog1, the z-score was inactive: 1.24.
For GGACUCUUCAGCUUCCAGUTT against Uts2, the z-score was inactive: -0.0543.
For GGACAAAGACUUCCUUGUUTT against Gstt1, the z-score was inactive: -0.99.
In the case of GGAAGAGGAGAAGAGCAUGTT against Lgals6, the z-score was inactive: 0.404.
For GGAGCAUUUUCCAGUUGAGTT against Mrps35, the z-score was active: 2.41.
In the case of GGGCUCCUGAGCCUCUUAATT against Sprr1a, the z-score was active: 2.29.
In the case of GGACUAUGAAGAGCUAGAGTT against Luzp2, the z-score was inactive: -0.423.
In the case of GCAGCUUCAAGCUAAUUGATT against Tram1l1, the z-score was inactive: 0.0136.
For GCUACAUUUACAAUGGAUUTT against Fam160a1, the z-score was inactive: 1.26.
For GGCCAAGCACGAUAAAUACTT against Stub1, the z-score was inactive: -1.08.
In the case of GCUUUCAUAGCUGGAAACCTT against Olfr173, the z-score was inactive: 0.452.
With CCACCAUCGUUACGUACCATT against Stt3a the z-score was inactive: -0.571.
In the case of GGAUAAGAUCAAUGCCCUCTT against Rplp1, the z-score was inactive: 0.27.
For GGGUUUCCUACAGAGUACCTT against Amer3, the z-score was inactive: -0.845.
For GCAACGACAAACGAAGUGATT against Cdx2, the z-score was inactive: 0.307.
For CCCAAUAUGCAUAAAACAATT against Azi2, the z-score was inactive: -0.472.
For GGCUGUCCAUAUCAUCUACTT against Cxcr4, the z-score was inactive: 0.673.
For GGGUGAGCUCACGUUCUUUTT against Trim50, the z-score was inactive: -0.519.
For GGUGUUCUGUAUCUUGUUCTT against Ndn, the z-score was inactive: 0.572.
In the case of GGUUUGACUAUUUCAGUGATT against Klrb1c, the z-score was inactive: 0.251.
In the case of GGCUGAAGACAAAACCUGUTT against Zfp418, the z-score was inactive: 1.28.
With CCCGAACAGAUCUUGUCGATT against Hoxd10 the z-score was inactive: -0.362.
For CGCUAUUUGAAAUCUCCAATT against Rgs9, the z-score was inactive: 0.232.
For “CCGUCGUGGGUGAUAUCAUTT against 2310022A10Rik”, the z-score was inactive: -0.0389.
For GGAGUCUGUCUUAUCAUUUTT against Bmerb1, the z-score was inactive: 1.73.
For GCUUUGAACGGCGAUAUCATT against Wdtc1, the z-score was inactive: -0.119.
With GGAAGGACCACGACUCAUATT against Sult2a2 the z-score was inactive: -0.507.
With CCAAACAACCAGCUAAUAUTT against Mia3 the z-score was inactive: -0.375.
In the case of GCUGGGUAACCGCUAUCAATT against Ubtd1, the z-score was inactive: 1.85.
With “GCAACAAAGGUGCCGAAACTT against B330016D10Rik” the z-score was inactive: 0.292.
In the case of CCUACGUGAUCAACAAGCATT against Fxn, the z-score was inactive: 0.682.
With GCCCUCAGAAGACGACGAUTT against Lat2 the z-score was inactive: 0.977.
In the case of GCCGUAUUUUGCUUGUUUCTT against Gpr35, the z-score was inactive: 1.86.
In the case of GGCAUGGAAUGAGCUUUUCTT against Nr2e3, the z-score was active: 3.83.
With GGGCCAUGAUAGGACACACTT against Nme4 the z-score was active: 2.97.
For GGGAAUGGCACCAUUUUCUTT against Pbp2, the z-score was inactive: 0.729.
In the case of GGAGCUCUGUCAUGAGUUUTT against Colgalt2, the z-score was inactive: -0.239.
In the case of GGGACUUCAUUGCUACUAATT against B9d2, the z-score was inactive: 1.39.
